Results taken from paper PMC3187839.
No constants are given. Whether binding was seen depends on the method and setting. Binding seen in cells or lysates may run through a third protein. Some binding calls cover weakened binding; strength is not graded here.

Protein sequences, listed by entry. Tags and fused reporters are not part of them. Lines headed by an entry give the natural chain unless they say otherwise; changes in a name come on top.
UniProt P00441: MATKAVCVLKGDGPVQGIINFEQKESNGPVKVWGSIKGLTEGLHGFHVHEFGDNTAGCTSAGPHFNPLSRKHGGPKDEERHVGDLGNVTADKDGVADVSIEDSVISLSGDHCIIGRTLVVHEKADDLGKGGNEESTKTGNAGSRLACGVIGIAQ
UniProt P84078: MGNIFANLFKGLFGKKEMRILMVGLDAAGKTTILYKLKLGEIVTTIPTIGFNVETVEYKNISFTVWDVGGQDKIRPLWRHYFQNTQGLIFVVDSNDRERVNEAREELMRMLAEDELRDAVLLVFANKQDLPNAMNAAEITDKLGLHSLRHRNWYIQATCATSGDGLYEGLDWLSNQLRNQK
UniProt O95292: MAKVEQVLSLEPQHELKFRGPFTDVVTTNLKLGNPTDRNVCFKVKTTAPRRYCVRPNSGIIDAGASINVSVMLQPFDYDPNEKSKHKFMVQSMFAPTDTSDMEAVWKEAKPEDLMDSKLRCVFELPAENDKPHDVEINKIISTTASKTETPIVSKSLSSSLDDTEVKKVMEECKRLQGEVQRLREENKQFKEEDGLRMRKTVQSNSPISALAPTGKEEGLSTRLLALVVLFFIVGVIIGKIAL
UniProt P36536: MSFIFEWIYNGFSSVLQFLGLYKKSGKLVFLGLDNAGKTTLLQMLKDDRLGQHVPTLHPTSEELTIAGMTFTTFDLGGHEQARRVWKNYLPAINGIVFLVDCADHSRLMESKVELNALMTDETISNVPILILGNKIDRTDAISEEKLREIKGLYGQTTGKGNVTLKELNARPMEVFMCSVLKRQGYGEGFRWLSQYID
UniProt P28066: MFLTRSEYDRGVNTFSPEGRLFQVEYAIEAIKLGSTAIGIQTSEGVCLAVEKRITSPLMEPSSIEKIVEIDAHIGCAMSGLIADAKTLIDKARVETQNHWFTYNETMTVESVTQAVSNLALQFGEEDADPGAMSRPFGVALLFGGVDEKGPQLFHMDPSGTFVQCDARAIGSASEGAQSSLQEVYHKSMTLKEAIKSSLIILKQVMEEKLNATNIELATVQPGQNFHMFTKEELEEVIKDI

Columns and labels:
Experiment in all cases: co-IP; lysates of transfected COS-7 cells (IP buffer: 20 mM Tris-HCl pH 7.5, 150 mM NaCl, 5 mM EDTA, 5 mM EGTA, 2 mM ATP, 10% glycerol, 1% Triton X-100); 1 mg protein, overnight at +4°C with anti-hVAPB, anti-hVAPA, anti-myc or anti-Rpt2 and Protein A or G sepharose; Western blot for endogenous alpha 5 or alpha 1–7
[1] = target: T1, human VAPA (human) (UniProt Q9P0L0)
T1 sequence: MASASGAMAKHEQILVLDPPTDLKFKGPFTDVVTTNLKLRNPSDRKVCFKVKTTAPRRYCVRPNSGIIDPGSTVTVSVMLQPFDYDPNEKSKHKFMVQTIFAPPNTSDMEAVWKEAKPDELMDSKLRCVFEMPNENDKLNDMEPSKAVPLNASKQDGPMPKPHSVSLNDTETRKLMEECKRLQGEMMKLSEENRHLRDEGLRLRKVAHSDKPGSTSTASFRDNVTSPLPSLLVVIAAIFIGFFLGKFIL

[2] = target: myc-tagged human superoxide dismutase-1 (human) (UniProt P00441)
[3] = target: myc-tagged ADP-ribosylation factor 1 (Arf1, COPI coat protein) (mouse) (UniProt P84078)
[4] = target: ALS-associated P56S mutated human VAPB (human) (UniProt O95292)
[5] = target: wildtype human VAPB (vesicle-associated membrane protein (VAMP)-associated protein B) (human) (UniProt O95292)
[6] = target: myc-tagged Sar1 (COPII coat protein) (UniProt P36536)

alpha 5 subunit of the proteasome (from UniProt P28066 1-241)
binding [1]: no binding
binding [2]: no binding
binding [3]: no binding
binding [4]: binds
binding [5]: binds
binding [6]: no binding
